Test results reported in PubChem BioAssay AID504444 (National Center for Advancing Translational Sciences (NCATS), 2011).
The whole screen tested about 360,000 compounds, of which about 7,500 (2.1%) were called active. The shares of active, inactive and inconclusive entries below differ from those in the screen. Calls follow the shape of the dose curve; as a rule, active = well fitted inhibition curve with a large enough effect; inconclusive = small, poorly fitted or top-dose-only effect, or effect the other way; inactive = flat fitted curve, though single readings scatter. Potencies of inconclusive entries are doubtful fits and often do not repeat.
Potency is read from the fitted curve at half-maximal effect.

Assay: Nrf2 qHTS screen for inhibitors; also: nearly all actives have a fitted effect of over 60% in size
Details: A549 ARE-Fluc reporter, luciferase luminescence, 18-24 h; series mostly up to 46 µM
Method in brief: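 Nrf2 function is reported as luminescence of an ARE-controlled luciferase in A549 cells. Compounds were tested at several concentrations, and a CellTiter-Fluor read on the same wells flagged cytotoxicity.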
With `COCC(=O)N(Cc1nc2sc(C)c(C)c2c(=O)[nH]1)C1CCCCC1` the Potency was “inactive”.
With `CCOc1ccc(NC(=S)NCCN2CCN(Cc3ccccc3)CC2)cc1` the Potency was inconclusive: 29.1 µM [falling, single point].
For `O/N=C/c1ccc(OCc2ccccc2)c(Br)c1`, the Potency was inconclusive: 16.4 µM [activator, partial curve].
In the case of `CC(=O)c1c(N2CCN(c3ccc(F)cc3)CC2)nc(=S)n(Cc2ccccc2)c1C`, the Potency is reported as “inactive”.
With `Cc1nn(CC(=O)NCc2ccccc2Cl)c(=O)c2cccn12` the Potency was inconclusive: 29.1 µM [falling, single point].
For `COC(=O)c1sccc1S(=O)(=O)N(CC(=O)NCc1ccccc1)c1ccc(C)c(C)c1`, the Potency was “inactive”.
In the case of `COc1ccc(N2CC(C(=O)N/N=C/c3ccc(C)cc3)CC2=O)cc1` (stereo unspecified), the Potency is reported as inconclusive: 9.2 µM [activator, partial curve].
In the case of `O=C1CCN(CCc2ccccc2)CCN1[C@H](COc1ccccc1)c1ccccc1`, the Potency is reported as “inactive”.
For `CCOC(=O)c1c(C)c(-c2ccccc2)n(CC(=O)Nc2cccc(F)c2)c1C`, the Potency was “inactive”.
For `Cc1cccc(NC(=O)CN2C(=O)COc3ccc(S(=O)(=O)N4CCC(C)CC4)cc32)c1C`, the Potency was “inactive”.
In the case of `CCN(CC)CCCNC(=O)c1nn(-c2ccc(OC)c(Cl)c2)c(=O)c2c1c1ccccc1n2C`, the Potency is reported as “inactive”.
For `COc1ccc(N/C=C2\CCOC2=O)cc1`, the Potency was “inactive”.
In the case of `CCC1CCc2c(c3ccccc3[nH]c2=O)O1` (stereo unspecified), the Potency is reported as inconclusive: 8.2 µM [falling, partial curve, poor fit].
For `COc1ccc(C(=O)NCCN2CCCC2)cc1`, the Potency was “inactive”.
For `Cc1nc([N+](=O)[O-])c(Br)n1CC(=O)c1cccc([N+](=O)[O-])c1`, the Potency was inconclusive: 23.1 µM [activator, single point].
In the case of `COc1ccc(C(=O)N2CCCC(C(=O)O)C2)c2ccccc12` (stereo unspecified), the Potency is reported as “inactive”.
With `COCCCNc1ncnc2c1sc1nc(-c3ccco3)c3c(c12)CC(C)(C)OC3` the Potency was inconclusive: 8.2 µM [falling, partial curve, poor fit].
With `CC(C)CNC(=O)c1ccc(C2SCC(=O)N2Cc2ccccc2)cc1` (stereo unspecified) the Potency was inconclusive: 23.1 µM [falling, single point].
For `Cc1ccc(CC(=O)Nc2ccncc2)cc1`, the Potency was inconclusive: 8.2 µM [falling, partial curve].
With `Cc1ccc(-n2c3nc(=O)[nH]c(=O)c-3cc3cc([N+](=O)[O-])ccc32)cc1C` the Potency was active: 14.6 µM.
In the case of `O=C(Nc1noc2ccccc12)c1c(F)cccc1F`, the Potency is reported as inconclusive: 0.411 µM [activator, partial curve, poor fit].
